Among the data in patent publication US20220098252A1, “INHIBITOR OF DUX4 AND USES THEREOF” (OSPEDALE SAN RAFFAELE S.R.L., published 2022) are binding values, retold here.

No constants are given. Whether binding was seen depends on the method and setting. Binding seen in cells or lysates may run through a third protein. Some entries that bind do so weakly or less than the wild type. For part of these data: Where a sequence is shown, tags or fusion partners need not be part of it.

For assay [1], the target named is DUX4 (transfected, pLBC2-BS-RFCA-BCVIII vector) (human) (UniProt Q9UBX2). Nature of the assay: anti-FLAG M2 pull-down from nuclease-treated nuclear extracts of transfected HEK293T cells, immunoblot anti-DUX4 E5-5. (In general: In western blotting, separated proteins are transferred to a membrane and probed.)
The target in assay [2] is STREP-HA DUX4 DNA-binding domain (dbd) (human) (UniProt P0CJ85). Nature of the assay: semi-endogenous Strep-Tactin pull-down, nuclease-treated nuclear extracts, immunoblot.
For assay [3] the target is unchanged. Nature of the assay: Strep-Tactin pull-down from nuclear extracts of transfected cells, biotin elution, immunoblot.

B1: FLAG MATR3 full-length (protein, human, UniProt P43243 1-847, looked up, not shown: small tags and cut ends)
chain: MSKSFQQSSLSRDSQGHGRDLSAAGIGLLAAATQSLSMPASLGRMNQGTARLASLMNLGMSSSLNQQGAHSALSSASTSSHNLQSIFNIGSRGPLPLSSQHRGDADQASNILASFGLSARDLDELSRYPEDKITPENLPQILLQLKRRRTEEGPTLSYGRDGRSATREPPYRVPRDDWEEKRHFRRDSFDDRGPSLNPVLDYDHGSRSQESGYYDRMDYEDDRLRDGERCRDDSFFGETSHNYHKFDSEYERMGRGPGPLQERSLFEKKRGAPPSSNIEDFHGLLPKGYPHLCSICDLPVHSNKEWSQHINGASHSRRCQLLLEIYPEWNPDNDTGHTMGDPFMLQQSTNPAPGILGPPPPSFHLGGPAVGPRGNLGAGNGNLQGPRHMQKGRVETSRVVHIMDFQRGKNLRYQLLQLVEPFGVISNHLILNKINEAFIEMATTEDAQAAVDYYTTTPALVFGKPVRVHLSQKYKRIKKPEGKPDQKFDQKQELGRVIHLSNLPHSGYSDSAVLKLAEPYGKIKNYILMRMKSQAFIEMETREDAMAMVDHCLKKALWFQGRCVKVDLSEKYKKLVLRIPNRGIDLLKKDKSRKRSYSPDGKESPSDKKSKTDGSQKTESSTEGKEQEEKSGEDGEKDTKDDQTEQEPNMLLESEDELLVDEEEAAALLESGSSVGDETDLANLGDVASDGKKEPSDKAVKKDGSASAAAKKKLKKVDKIEELDQENEAALENGIKNEENTEPGAESSENADDPNKDTSENADGQSDENKDDYTIPDEYRIGPYQPNVPVGIDYVIPKTGFYCKLCSLFYTNEEVAKNTHCSSLPHYQKLKKFLNKLAEERRQKKET
As to B1, in assay [1], the binding entry is recorded as “binds”.

B2: endogenous MATRIN-3 (MATR3) (protein, human, UniProt P43243 2-847, looked up)
chain: SKSFQQSSLSRDSQGHGRDLSAAGIGLLAAATQSLSMPASLGRMNQGTARLASLMNLGMSSSLNQQGAHSALSSASTSSHNLQSIFNIGSRGPLPLSSQHRGDADQASNILASFGLSARDLDELSRYPEDKITPENLPQILLQLKRRRTEEGPTLSYGRDGRSATREPPYRVPRDDWEEKRHFRRDSFDDRGPSLNPVLDYDHGSRSQESGYYDRMDYEDDRLRDGERCRDDSFFGETSHNYHKFDSEYERMGRGPGPLQERSLFEKKRGAPPSSNIEDFHGLLPKGYPHLCSICDLPVHSNKEWSQHINGASHSRRCQLLLEIYPEWNPDNDTGHTMGDPFMLQQSTNPAPGILGPPPPSFHLGGPAVGPRGNLGAGNGNLQGPRHMQKGRVETSRVVHIMDFQRGKNLRYQLLQLVEPFGVISNHLILNKINEAFIEMATTEDAQAAVDYYTTTPALVFGKPVRVHLSQKYKRIKKPEGKPDQKFDQKQELGRVIHLSNLPHSGYSDSAVLKLAEPYGKIKNYILMRMKSQAFIEMETREDAMAMVDHCLKKALWFQGRCVKVDLSEKYKKLVLRIPNRGIDLLKKDKSRKRSYSPDGKESPSDKKSKTDGSQKTESSTEGKEQEEKSGEDGEKDTKDDQTEQEPNMLLESEDELLVDEEEAAALLESGSSVGDETDLANLGDVASDGKKEPSDKAVKKDGSASAAAKKKLKKVDKIEELDQENEAALENGIKNEENTEPGAESSENADDPNKDTSENADGQSDENKDDYTIPDEYRIGPYQPNVPVGIDYVIPKTGFYCKLCSLFYTNEEVAKNTHCSSLPHYQKLKKFLNKLAEERRQKKET
With B2, the binding entry in assay [2] and in assay [3] was “binds” in each case.
